PubChem BioAssay AID1159578 – Peter MacCallum Cancer Centre | 2015

Screen: 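Genome-wide hunt for genes controlling movement of lymphatic endothelial cells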 (primary screen)
System: human lymphatic endothelial cells
Reagent: siRNA pool against human genes, 40 nM
Timing: 48 h after transfection
Measured: 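High-content imaging of dye-stained cells in a scratch assay measures filled wound area and nuclei per well; duplicate means given as ratio to mock and robust z-score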
Direction: migration robust z-score: higher = faster migration into the scratch; migration relative to mock: higher = more scratch area covered than mock; nuclei per well: higher = more cells in the well
Rule for the call: 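Migration changed when robust z exceeds 2 or falls below -2 and mean nuclei number is at least 3300; otherwise not called changed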
Calls: active = migration changed; inactive = no migration change, or too few cells
Shown is one part, drawn at random, of about 18,000 reagents. Over the whole deposit, about 1,030 (5.7%) got an active call. 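Inactive calls also include pools with fewer than 3300 nuclei, whose migration was not assessed.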 Raw values vary from plate to plate and are shown uncorrected.

target gene | migration robust z-score | migration class with cell-count check | migration relative to mock | nuclei per well, duplicate mean | activity call
CPPED1 (GeneID 55313) | 0.08 | migration z between -2 and 2; enough cells | 0.82 | 6292 | inactive
IL5 (GeneID 3567) | 0.13 | migration z between -2 and 2; enough cells | 0.83 | 6554 | inactive
H3C14 (GeneID 126961) | 0.22 | migration z between -2 and 2; enough cells | 0.94 | 5704 | inactive
SNX10 (GeneID 29887) | 0.54 | migration z between -2 and 2; enough cells | 1.02 | 5933 | inactive
WRN (GeneID 7486) | -0.52 | migration z between -2 and 2; enough cells | 0.7 | 5648 | inactive
TARS1 (GeneID 6897) | -0.98 | migration z between -2 and 2; enough cells | 0.62 | 5942 | inactive
ANGPTL6 (GeneID 83854) | -0.55 | migration z between -2 and 2; enough cells | 0.74 | 6474 | inactive
SH3BGR (GeneID 6450) | -0.94 | migration z between -2 and 2; enough cells | 0.62 | 4994 | inactive
PABIR3 (GeneID 159091) | 1.1 | migration z between -2 and 2; enough cells | 1.17 | 5716 | inactive
DEFB119 (GeneID 245932) | 0.52 | migration z between -2 and 2; enough cells | 1.02 | 4769 | inactive
STAG3L3 (GeneID 442578) | 1.23 | migration z between -2 and 2; enough cells | 1.21 | 6751 | inactive
ANO4 (GeneID 121601) | 1.01 | migration z between -2 and 2; enough cells | 1.14 | 6824 | inactive
SEC24B (GeneID 10427) | 0.68 | migration z between -2 and 2; enough cells | 1.06 | 5772 | inactive
DBF4B (GeneID 80174) | -0.35 | migration z between -2 and 2; enough cells | 0.8 | 6002 | inactive
SQLE (GeneID 6713) | -0.5 | migration z between -2 and 2; enough cells | 0.71 | 6037 | inactive
CSNK1G2 (GeneID 1455) | 0.5 | migration z between -2 and 2; enough cells | 0.9 | 4190 | inactive
PLK4 (GeneID 10733) | -4.8 | under 3300 nuclei; migration not judged | -0.12 | 2278 | inactive
SLC23A1 (GeneID 9963) | 0.57 | migration z between -2 and 2; enough cells | 0.92 | 6813 | inactive
DNAJB7 (GeneID 150353) | 0.71 | migration z between -2 and 2; enough cells | 1.07 | 5718 | inactive
RPL21P44 (GeneID 402176) | -0.38 | migration z between -2 and 2; enough cells | 0.78 | 4048 | inactive
DHRSX (GeneID 207063) | -0.52 | migration z between -2 and 2; enough cells | 0.7 | 4874 | inactive
CCL23 (GeneID 6368) | -2.35 | migration z below -2; enough cells | 0.28 | 5536 | active
DBX2 (GeneID 440097) | -0.86 | migration z between -2 and 2; enough cells | 0.66 | 4570 | inactive
